Results: patent US20260109727A1, “RNA CONSTRUCTS AND USES THEREOF” (BioNTech SE, priority 2022, published 2026)

Tests used:
[1] = tested on: EPO-encoding mRNAs (EPO mRNA); assay: In vitro transcription RNA yield with trinucleotide cap analogs (MEGAscript T7); assay type: biochemical; conditions: for RNA yield by cap concentration: cap used in the range of 3-6 mM (1, 3, 6, 9, 12 mM tested)
[2] = tested on: EPO-encoding mRNAs (EPO mRNA); assay: Detection of short byproducts by denaturing Urea-PAGE; assay type: biochemical; conditions: EPO m1Ψ-mRNAs

Compound | RNA yield ([1]; EPO mRNA, AUAGU transcriptional start site) [μg/Unit] | RNA yield by cap concentration [1] | RNA yield by cap concentration ([1]; listed as (m2^7,3′-O)Gppp(m^2′-O)ApU) | amount of short contaminants [2]
COC1C(OP(=O)([O-])OC[C@H]2O[C@@H](n3ccc(=O)[nH]c3=O)C(O)C2O)[C@@H](COP(=O)(O)OP(=O)(O)OP(=O)(O)OC[C@H]2O[C@@H](n3c[n+](C)c4c(O)nc(N)nc43)C(O)C2OC)O[C@H]1n1cnc2c(N)ncnc21 (some centres unmarked) [I′-1, m^7G(^3′-OMe)pppA(2′-OMe)pU] | 64 | high yield | High yield | –
COC1C(OP(=O)(O)OC[C@H]2O[C@@H](c3cn(C)c(=O)[nH]c3=O)C(O)C2O)[C@@H](COP(=O)(O)OP(=O)([O-])OP(=O)(O)OC[C@H]2O[C@@H](n3c[n+](C)c4c(O)nc(N)nc43)C(O)C2OC)O[C@H]1n1cnc2c(N)ncnc21 (some centres unmarked) [I′-6, m^7G(^3′-OMe)pppA(2′-OMe)pm^1Ψ] | – | – | – | minimal amount
(m2^7,3′-O)Gppp(m^2′-O)ApG [CC413, reference compound] | – | – | – | minimal amount
